Laboratory results as given in PubChem BioAssay AID1347076 (National Center for Advancing Translational Sciences (NCATS), 2019).
Out of some 400,000 compounds screened, about 13,000 (3.2%) were called active. Inconclusive results, whose numbers are uncertain, are shown with a selection of clear calls. Calls follow the shape of the dose curve; as a rule, active = well fitted cell-killing curve with a large enough effect; inconclusive = small, poorly fitted or top-dose-only effect, or effect the other way; inactive = flat fitted curve, though single readings scatter. Potencies of inconclusive entries are doubtful fits and often do not repeat. Some structures have more than one record in an assay (separate samples or runs), and their calls can disagree.

Assay: qHTS assay for MDR1-selective chemotherapeutics: Primary screen using the drug-selected MDR subline cells KB-V1; also: nearly all actives have a fitted effect of over 60% in size
Settings: KB-V1 MDR cells viability, CellTiter-Glo, 72 h; activity change, negative = cytotoxicity: at 46.1 µM (top of the series)
How it was run: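 Luminescent ATP read-out (CellTiter-Glo, 10 min) measures survival of drug-selected KB-V1 MDR cells after 72 h, 37 degrees C compound exposure. Medium: phenol-red-free DMEM, 10% FBS. Values from fitted concentration-response curves.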
% is scaled to controls: 0 for no effect and ±100 for the full control effect; potency is read from the fitted curve at half-maximal effect.

Q: With Cc1ccc(C(=O)CN(CCC(=O)O)C(=O)c2ccncc2)cc1 as the compound, how does the Potency read?
A: The Potency was inconclusive: 0.0058 µM [rising, full curve, poor fit].

Q: For COc1ccc(NS(=O)(=O)c2ccc(N3CCOCC3)c(NC(=O)C(C)C)c2)cc1, which Potency is on record?
A: Its Potency is active: 18.4 µM.

Q: For C/C(=N\NC(=O)c1ccccc1O)c1cccs1, which Potency is on record?
A: The Potency was inconclusive: 18.4 µM [cytotoxic, partial curve].

Q: With COC(=O)[C@@]12C[C@@H](CC(=O)N3CCN(C(=O)C4CC4)CC3)C(=O)N(Cc3cccc4ccccc34)C1=CCC(C)(C)C2 as the compound, how does the Potency read?
A: The Potency was inconclusive: 11.6 µM [cytotoxic, partial curve].

Q: Which activity change, negative = cytotoxicity does the source give for Cc1ccc(NC(=O)CSc2nnc3ccccn23)cc1S(=O)(=O)N1CCOCC1 here?
A: Its activity change, negative = cytotoxicity is inconclusive: 0%.

Q: For COc1ccc(N(CC(=O)N/N=C/c2ccco2)S(=O)(=O)c2ccccc2)cc1, which Potency is on record?
A: The Potency was inconclusive: 20.6 µM [cytotoxic, partial curve, poor fit].

Q: With CC(=O)c1ccc(N2Cc3ccccc3/C2=N\C(=O)Nc2ccc(Cl)cc2)cc1 as the compound, how does the Potency read?
A: Its Potency is inconclusive: 23.1 µM [cytotoxic, partial curve, poor fit].

Q: With Cc1cc2oc(=O)cc(CNc3ccccc3F)c2cc1O as the compound, how does the Potency read?
A: Its Potency is inconclusive: 9.2 µM [cytotoxic, partial curve, poor fit].

Q: For Cc1cccc(NC(=O)CCS(=O)(=O)c2cc3c(cc2Cl)NC(=O)CO3)c1, which “activity change, negative = cytotoxicity” value is on record?
A: Its value is inactive: 21%.

Q: Which Potency does the source give for CN1C(=O)C(C)(C)N(C(=O)c2cccc([N+](=O)[O-])c2)c2ccccc21 here?
A: Its Potency is inconclusive: 20.6 µM [rising, partial curve, poor fit].

Q: With COCCn1c(SCC(=O)Nc2ccccc2OC)nc2c(oc3ccccc32)c1=O as the compound, how does the Potency read?
A: Its Potency is inconclusive: 3.26 µM [cytotoxic, full curve, poor fit].

Q: Which activity change, negative = cytotoxicity does the source give for Cc1sc2nc(CSC(C)C(=O)Nc3ccc(Cl)cn3)[nH]c(=O)c2c1C (configuration not stated) here?
A: The activity change, negative = cytotoxicity was inconclusive: -31.3%.

Q: For COc1cccc(-c2ccc(SCC(=O)NCCc3ccccc3)nn2)c1, which Potency is on record?
A: The Potency was inconclusive: 18.4 µM [cytotoxic, single point].

Q: For COc1cccc(C(=O)CSc2nc3ccccc3n2CC(=O)N2CCOCC2)c1, which Potency is on record?
A: Its Potency is active: 20.6 µM.

Q: With CC1CCN(C(c2ccc(F)cc2)c2sc3nc(-c4ccco4)nn3c2O)CC1 (configuration not stated) as the compound, how does the “activity change, negative = cytotoxicity” value read?
A: The value was inactive: 25.8%.

Q: With CN(C)c1ccc(/C=C(\Cl)c2nc3ccccc3s2)cc1 as the compound, how does the Potency read?
A: Its Potency is inconclusive: 18.4 µM [cytotoxic, single point].

Q: Which Potency does the source give for CC(=O)N1CCCc2cc(S(=O)(=O)Nc3ccc(Cl)cc3F)ccc21 here?
A: Its Potency is inconclusive: 16.4 µM [cytotoxic, single point].

Q: Which Potency does the source give for Cc1ccc2c(c1)[C@H]1[C@H](CO2)[C@H](c2ccccc2)[C@]2(C)C(=O)Nc3cc(F)ccc3C(=O)N12 here?
A: Its Potency is inconclusive: 29.1 µM [cytotoxic, single point].

Q: With CN(C)c1cccc(-c2nnc(SCCCC#N)o2)c1 as the compound, how does the Potency read?
A: The Potency was active: 20.6 µM.

Q: With Cc1ccc2c(Cl)c(C(=O)Nc3cccnc3)sc2c1 as the compound, how does the “activity change, negative = cytotoxicity” value read?
A: The value was inactive: 21.6%.

Q: Which Potency does the source give for COc1ccc(C(=O)Oc2c(C)occc2=O)cc1OC here?
A: Its Potency is inconclusive: 29.1 µM [cytotoxic, single point].

Q: For Cc1cc2c(c(=O)o1)C(c1ccc([N+](=O)[O-])o1)C(C#N)=C(N)O2 (configuration not stated), which “activity change, negative = cytotoxicity” value is on record?
A: The value was inactive: -2.2%.

Q: For Cc1ccc(S(=O)(=O)N2CCN(S(=O)(=O)N3CCC(C)CC3)CC2)c(C)c1, which Potency is on record?
A: Its Potency is inconclusive: 6.51 µM [cytotoxic, full curve, poor fit].

Q: Which Potency does the source give for CCN(CC)c1nc(Nc2ccc(Cl)cc2)nc(OCC#N)n1 here?
A: Its Potency is inconclusive: 18.4 µM [cytotoxic, single point].

Q: With O=C(CN1C(=O)NC(Cc2c[nH]c3ccccc23)C1=O)Nc1ccccc1Br (configuration not stated) as the compound, how does the Potency read?
A: The Potency was inconclusive: 29.1 µM [rising, single point].

Q: With Cc1cccc(-c2ccc(O)cc2CN2CCN(c3ncc(Cc4ccccc4)cn3)CC2)c1 as the compound, how does the Potency read?
A: The Potency was inconclusive: 18.4 µM [cytotoxic, partial curve, poor fit].

Q: For CCOC(=O)CCCCCCCCC(=O)Nc1ccc(-n2[nH]c(=O)cc2C)cc1, which Potency is on record?
A: The Potency was inconclusive: 25.9 µM [cytotoxic, single point].

Q: Which Potency does the source give for Cc1cccc(C)c1NC(=O)c1c(C)nn(-c2ccccc2)c1Cl here?
A: Its Potency is active: 14.6 µM.

Q: For Cn1cnc(S(=O)(=O)N2CCCCC2c2cc(C(=O)Nc3ccccc3Cl)no2)c1 (configuration not stated), which “activity change, negative = cytotoxicity” value is on record?
A: The value was inactive: 4.05%.

Q: Which Potency does the source give for CCCCN1CC[C@H]2C=CC[C@@H](C(=O)Nc3ccc(Cl)c(C(F)(F)F)c3)[C@H]2C1=O here?
A: The Potency was inconclusive: 18.4 µM [cytotoxic, partial curve].

Q: For COCCCNC(=O)c1ccc(Cn2c(=O)c3ccccc3n(Cc3cc(C)ccc3C)c2=O)cc1, which Potency is on record?
A: Its Potency is inconclusive: 29.1 µM [cytotoxic, single point].

Q: Which “activity change, negative = cytotoxicity” value does the source give for c1cc2c(cc1Cc1cncc(Cc3ccc4c(c3)OCO4)c1)OCO2 here?
A: The value was inactive: 0%.

Q: For Cc1ccc(S(=O)(=O)N2CCC(C)CC2)cc1C(=O)NCc1ccccn1, which Potency is on record?
A: The Potency was inconclusive: 14.6 µM [cytotoxic, partial curve].

Q: For CN1OC[C@@H]2CN(S(=O)(=O)c3cccc4ccccc34)[C@H](c3ccc(N4CCCCC4)cc3)C[C@@H]21, which Potency is on record?
A: The Potency was inconclusive: 18.4 µM [cytotoxic, partial curve].

Q: Which Potency does the source give for COc1ccc(-c2ccc(SC)nn2)cc1 here?
A: The Potency was active: 9.2 µM.

Q: With COc1cc(CN(CCc2c(C)[nH]c3ccc(C)cc23)C(=S)NC(C)(C)C)cc(OC)c1OC as the compound, how does the Potency read?
A: The Potency was inconclusive: 29.1 µM [cytotoxic, single point].

Q: With CCOc1ccc2nnnn2n1 as the compound, how does the Potency read?
A: The Potency was inconclusive: 7.31 µM [rising, partial curve, poor fit].

Q: For Cc1ccc(-n2[nH]c(C)c(C=Nc3ccc(Br)cn3)c2=O)cc1, which “activity change, negative = cytotoxicity” value is on record?
A: The value was inactive: 9.31%.

Q: With Cc1ccc2nc(-c3ccccc3)cc(C(=O)NNC(=O)c3csc(N4CCOCC4)n3)c2c1 as the compound, how does the Potency read?
A: Its Potency is active: 20.6 µM.

Q: With CCOC(=O)c1c(-c2cccc(C)c2)csc1NC(=O)c1c(-c2ccccc2)noc1C as the compound, how does the Potency read?
A: The Potency was active: 11.6 µM.

Q: Which Potency does the source give for CC1CCC2C(=O)N(c3cccc(C(=O)Nc4ccc(F)cc4)c3)C(=O)C2C1 (configuration not stated) here?
A: Its Potency is inconclusive: 10.3 µM [cytotoxic, partial curve, poor fit].

Q: For O=C(Nc1ccc(S(=O)(=O)N2CCOCC2)cc1)c1ccc([N+](=O)[O-])cc1Cl, which “activity change, negative = cytotoxicity” value is on record?
A: The value was inactive: 0.467%.

Q: Which Potency does the source give for CSCC(=O)N1CCc2ccc(NC(=O)c3ccccc3Cl)cc2C1 here?
A: The Potency was inconclusive: 29.1 µM [cytotoxic, single point].

Q: For CC(=O)Nc1nc2ccccc2n1Cc1ccccc1, which Potency is on record?
A: The Potency was inconclusive: 16.4 µM [cytotoxic, single point].

Q: Which Potency does the source give for O=C(CN1CCN(c2ccccn2)CC1)Nc1ccc(Cl)c(C(F)(F)F)c1 here?
A: Its Potency is inconclusive: 29.1 µM [cytotoxic, single point].

Q: For COc1ccccc1CNC(=O)C(=O)NCC(c1cccnc1)N1CCN(c2ccccc2)CC1 (configuration not stated), which “activity change, negative = cytotoxicity” value is on record?
A: Its value is inactive: -24.2%.

Q: With C=CCNC(=O)COC(=O)c1nc2nccc(C)n2n1 as the compound, how does the Potency read?
A: The Potency was inconclusive: 25.9 µM [rising, single point].

Q: For CC(C)C[C@@H](CO)N(Cc1ccccc1)S(=O)(=O)N(Cc1ccccc1)[C@H](CO)CC(C)C, which Potency is on record?
A: Its Potency is active: 20.6 µM.

Q: With O=C(Cc1ccccc1)N1CCNCC1 as the compound, how does the Potency read?
A: Its Potency is inconclusive: 29.1 µM [rising, single point].

Q: Which Potency does the source give for CC(C)(C)Cc1nc2ccccc2n1CCc1ccccc1 here?
A: Its Potency is active: 18.4 µM.

Q: Which Potency does the source give for Fc1ccccc1COc1ccc(Br)cc1CNCc1ccncc1 here?
A: Its Potency is inconclusive: 29.1 µM [cytotoxic, partial curve, poor fit].

Q: With C/C(=N\NC(=O)CN1CCN(S(=O)(=O)c2ccc(C)cc2)CC1)c1ccc(O)cc1 as the compound, how does the “activity change, negative = cytotoxicity” value read?
A: The value was inactive: -2.1%.

Q: For N#C/C(=C/c1ccc(Br)s1)C(=O)NCCc1c[nH]c2ccccc12, which Potency is on record?
A: Its Potency is inconclusive: 20.6 µM [cytotoxic, single point].

Q: Which “activity change, negative = cytotoxicity” value does the source give for Cc1cc2c(c(C)c1CCO[C@@H]1O[C@H](CO)[C@@H](O)[C@H](O)[C@H]1O)C(=O)[C@@H](C)[C@@H]2O here?
A: Its value is inactive: -27.8%.

Q: With COc1ccc(CN2CCN(C(=O)c3ccccc3C(=O)c3ccccc3)CC2)cc1F as the compound, how does the Potency read?
A: The Potency was inconclusive: 3.66 µM [cytotoxic, partial curve].

Q: For COc1ccc(S(N)(=O)=O)cc1C(=O)OCC(=O)N1CC(=O)Nc2ccccc21, which “activity change, negative = cytotoxicity” value is on record?
A: Its value is inactive: 6.61%.

Q: With COc1ccc(-c2cn(Cc3ccc4c(c3)C(=O)c3ccccc3C4=O)nn2)cc1 as the compound, how does the Potency read?
A: The Potency was inconclusive: 4.11 µM [rising, full curve].

Q: For COc1ccc(-n2c(=O)c3c4c(sc3n(CC(=O)NCc3ccco3)c2=O)CCC4)c(OC)c1, which Potency is on record?
A: Its Potency is active: 16.4 µM.

Q: For CCc1ccccc1Nc1nc(N)nc(COC(=O)CCC(=O)c2ccc(F)cc2)n1, which Potency is on record?
A: Its Potency is inconclusive: 23.1 µM [rising, single point].

Q: For Cc1ccc(S(=O)(=O)N2CC3(O)CN(C(=O)OC(C)C)N(C(=O)OC(C)C)CC3(OC(=O)Nc3c(C)noc3C)C2)cc1 (configuration not stated), which “activity change, negative = cytotoxicity” value is on record?
A: Its value is inactive: 0%.

Q: With COc1cc(OC)c(OC)cc1CNC(=O)c1cccc(S(=O)(=O)N2CCc3ccccc3C2)c1 as the compound, how does the Potency read?
A: Its Potency is inconclusive: 16.4 µM [cytotoxic, partial curve, poor fit].

Q: With Cc1cccn2c(=O)c3cc(C(=O)NCc4ccco4)c(=N)n(C4CCCCC4)c3nc12 as the compound, how does the Potency read?
A: The Potency was inconclusive: 3.66 µM [cytotoxic, full curve].

Q: Which Potency does the source give for COc1ccccc1NC(=O)CSc1nnc2c(n1)[nH]c1ccccc12 here?
A: The Potency was active: 11.6 µM.

Q: For COc1ccc(CCn2c(-c3ccco3)nc3ccccc3c2=O)cc1OC, which Potency is on record?
A: Its Potency is inconclusive: 16.4 µM [cytotoxic, single point].

Q: With CCOC(=O)c1c(NC(=O)COC(=O)C2CC2C)sc(C)c1C (configuration not stated) as the compound, how does the Potency read?
A: Its Potency is inconclusive: 20.6 µM [cytotoxic, single point].

Q: With O=C(CN1C(=O)CCc2cc(Br)ccc21)Nc1ccc(OC(F)(F)F)cc1 as the compound, how does the “activity change, negative = cytotoxicity” value read?
A: Its value is inactive: 0%.

Q: For CN1CCN(C(=O)c2ccc(Cl)c(S(=O)(=O)N3CCCCCC3)c2)CC1, which Potency is on record?
A: The Potency was inconclusive: 29.1 µM [cytotoxic, single point].
